Experimental data taken from PMC8152081.
No constants are given. Whether binding was seen depends on the method and setting. In cells and extracts the contact can be indirect. Binding can be weak; no strength is given. Where a sequence is shown, tags or fusion partners need not be part of it.

B1: KITENIN-V5 (V5-tagged KITENIN) (protein, UniProt Q8TAA9 1-524)
chain: MDTESTYSGYSYYSSHSKKSHRQGERTRERHKSPRNKDGRGSEKSVTIQPPTGEPLLGNDSTRTEEVQDDNWGETTTAITGTSEHSISQEDIARISKDMEDSVGLDCKRYLGLTVASFLGLLVFLTPIAFILLPPILWRDELEPCGTICEGLFISMAFKLLILLIGTWALFFRKRRADMPRVFVFRALLLVLIFLFVVSYWLFYGVRILDSRDRNYQGIVQYAVSLVDALLFIHYLAIVLLELRQLQPMFTLQVVRSTDGESRFYSLGHLSIQRAALVVLENYYKDFTIYNPNLLTASKFRAAKHMAGLKVYNVDGPSNNATGQSRAMIAAAARRRDSSHNELYYEEAEHERRVKKRKARLVVAVEEAFIHIQRLQAEEQQKAPGEVMDPREAAQAIFPSMARALQKYLRITRQQNYHSMESILQHLAFCITNGMTPKAFLERYLSAGPTLQYDKDRWLSTQWRLVSDEAVTNGLRDGIVFVLKCLDFSLVVNVKKIPFIILSEEFIDPKSHKFVLRLQSETSV
B2: KSRP-His (bacterially expressed full-length KSRP) (protein, UniProt Q92945 1-711)
chain: MSDYSTGGPPPGPPPPAGGGGGAGGAGGGPPPGPPGAGDRGGGGPGGGGPGGGSAGGPSQPPGGGGPGIRKDAFADAVQRARQIAAKIGGDAATTVNNSTPDFGFGGQKRQLEDGDQPESKKLASQGDSISSQLGPIHPPPRTSMTEEYRVPDGMVGLIIGRGGEQINKIQQDSGCKVQISPDSGGLPERSVSLTGAPESVQKAKMMLDDIVSRGRGGPPGQFHDNANGGQNGTVQEIMIPAGKAGLVIGKGGETIKQLQERAGVKMILIQDGSQNTNVDKPLRIIGDPYKVQQACEMVMDILRERDQGGFGDRNEYGSRIGGGIDVPVPRHSVGVVIGRSGEMIKKIQNDAGVRIQFKQDDGTGPEKIAHIMGPPDRCEHAARIINDLLQSLRSGPPGPPGGPGMPPGGRGRGRGQGNWGPPGGEMTFSIPTHKCGLVIGRGGENVKAINQQTGAFVEISRQLPPNGDPNFKLFIIRGSPQQIDHAKQLIEEKIEGPLCPVGPGPGGPGPAGPMGPFNPGPFNQGPPGAPPHAGGPPPHQYPPQGWGNTYPQWQPPAPHDPSKAAAAAADPNAAWAAYYSHYYQQPPGPVPGPAPAPAAPPAQGEPPQPPPTGQSDYTKAWEEYYKKIGQQPQQPGAPPQQDYTKAWEEYYKKQAQVATGGGPGAPPGSQPDYSAAWAEYYRQQAAYYGQTPGPGGPQPPPTQQGQQQAQ

Columns and labels:
ΔKH12-KSRP-myc = test: co-IP; Caco2 cells transfected with myc-tagged KSRP (WT, Δ12, Δ34, ΔC) and GFP-tagged RACK1 or V5-tagged KITENIN
ΔKH34-KSRP-myc = test: as above
Dvl2-ΔDIX-GFP = test: pull-down; lysate of Dvl2-ΔDIX-GFP transfected HCT116 cells mixed with purified KSRP-His; GFP-Trap beads, with or without DKC1125 (10 mM), pulldown buffer (50 mM Tris-Cl pH 7.5, 50 mM NaCl), 4 °C overnight; only the binder purified

Binder	binding (ΔKH12-KSRP-myc)	binding (ΔKH34-KSRP-myc)	binding (Dvl2-ΔDIX-GFP)
B1	binds	binds	–
B2	–	–	binds
